Results reported in the RNAGym collection of RNA variant scans (doi:10.1126/science.aae0568).
Variants at the floor of the assay are shown more often than the library holds them.

B1: tRNA (parent)
chain: GUUCCGUUGGCGUAAUGGUAACGCGUCUCCCUCCUAAGGAGAAGACUGCGGGUUCGAGUCCCGUACGGAACG

Variants of: B1
Assay: yeast fitness relative to wild type (ratio to wild type); higher = fitter; tRNA-Arg(CCU), competitive growth, 37 C, YPD
Summary of the method: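 Changes in genotype frequencies gave Darwinian fitness relative to wild type. Frequencies were read by 100-nucleotide paired-end sequencing of gene amplicons before and after pooled Saccharomyces cerevisiae strains, carrying tRNA-Arg(CCU) gene variants at the native locus, were competed in YPD at 37°C for 24 hours in six replicates. A genotype was kept only with ≥ 100 starting reads, and estimates < 0.5 were set to 0.5.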

| Variant | yeast fitness |
| --- | --- |
| U2A A14C G48A | ≤ 0.5 |
| U2A A15G C22U | ≤ 0.5 |
| U2A A20C C33A C55U | ≤ 0.5 |
| U2A A20G G58C | 0.973 |
| U2A A21C C29U U59A | ≤ 0.5 |
| U2A A21G C33U G51C | ≤ 0.5 |
| U2A A40U A70U | 0.696 |
| U2A A40U G48A A65C | ≤ 0.5 |
| U2A A40U G48C | ≤ 0.5 |
| U2A A43G C60A | ≤ 0.5 |
| U2A A70U | 1.06 |
| U2A C4A C31U G38A | ≤ 0.5 |
| U2A C4U U8G C55G A70C | ≤ 0.5 |
| U2A C5A A21C | ≤ 0.5 |
| U2A C5A A65U | ≤ 0.5 |
| U2A C5A G41A A42C G50C A70G | ≤ 0.5 |
| U2A C5G A15G G56A | ≤ 0.5 |
| U2A C5G C22G G56A | ≤ 0.5 |
| U2A C5U C29G A40C A42C | ≤ 0.5 |
| U2A C5U C66U | 0.661 |
| U2A C11G G18A A21U G63C | ≤ 0.5 |
| U2A C11G G25A C49A C60G | ≤ 0.5 |
| U2A C11U G17A | ≤ 0.5 |
| U2A C24G A70U | ≤ 0.5 |

| Variant | yeast fitness |
| --- | --- |
| U2A C24U A37U | ≤ 0.5 |
| U2A C24U U35C C66U | ≤ 0.5 |
| U2A C24U U47C C60U U64C | ≤ 0.5 |
| U2A C27A C49G C60U A69G | ≤ 0.5 |
| U2A C27G A36G C60U A70G | ≤ 0.5 |
| U2A C27G A37C C55U | ≤ 0.5 |
| U2A C27U A36G | 0.578 |
| U2A C27U U32C G39C | ≤ 0.5 |
| U2A C30U A42G | ≤ 0.5 |
| U2A C31A A57G | 0.555 |
| U2A C31G C61G | ≤ 0.5 |
| U2A C31U A36U A69C | ≤ 0.5 |
| U2A C31U A45U | ≤ 0.5 |
| U2A C33G A42C C55U G63A | ≤ 0.5 |
| U2A C33U A37C C55U | ≤ 0.5 |
| U2A C33U C34U G38A G51A C55A A65U | ≤ 0.5 |
| U2A G6A A40U A69C | ≤ 0.5 |
| U2A G6C U16C C24U C46G C49A C61U | ≤ 0.5 |
| U2A G9A A37C A42C | ≤ 0.5 |
| U2A G9A U13A C24A A45C C55U | ≤ 0.5 |
| U2A G9A U13A C24A G44U A45C | ≤ 0.5 |
| U2A G9C A42C | ≤ 0.5 |
| U2A G9C U13A A15G C33A A37U G50C A69C | ≤ 0.5 |
| U2A G9C U16G U32G C55A | ≤ 0.5 |

| Variant | yeast fitness |
| --- | --- |
| U2A G9C U35A A36G | ≤ 0.5 |
| U2A G10A G17C U35C U47C C55G | ≤ 0.5 |
| U2A G12C A36C | ≤ 0.5 |
| U2A G17C A70U | 0.572 |
| U2A G18A C24U | ≤ 0.5 |
| U2A G23C A36U C66U G67A | ≤ 0.5 |
| U2A G23C C27U C31G A42C | ≤ 0.5 |
| U2A G41C G50C A65C | ≤ 0.5 |
| U2A G41C G50C C62G C66G | ≤ 0.5 |
| U2A G52A C61A | ≤ 0.5 |
| U2A U3C C24G C33G C66U | ≤ 0.5 |
| U2A U3G C29G C30G C46G | 0.612 |
| U2A U3G C29G C30G C46G A70G | ≤ 0.5 |
| U2A U7G A45U G52A U64C A69U | ≤ 0.5 |
| U2A U8C G12A A42U | ≤ 0.5 |
| U2A U8G C22U U32C C33G G38A | ≤ 0.5 |
| U2A U13C G38A | ≤ 0.5 |
| U2A U19C G48C U59A | ≤ 0.5 |
| U2A U19G C29G C62U | ≤ 0.5 |
| U2A U26C C55U C66U | ≤ 0.5 |
| U2A U28C C49U C62G | ≤ 0.5 |
| U2A U32C C60G | ≤ 0.5 |
| U2A U47A A65C | ≤ 0.5 |
| U2A U54C C66G | ≤ 0.5 |

| Variant | yeast fitness |
| --- | --- |
| U2C A14C U16C C46G A57C U59C | ≤ 0.5 |
| U2C A14C U35C C46A | ≤ 0.5 |
| U2C A15C C24A G41C G68A | ≤ 0.5 |
| U2C A15C C29U G50A U53C | ≤ 0.5 |
| U2C A20C A36G U54C C66U | ≤ 0.5 |
| U2C A20C C29G A36C G63A A70C | ≤ 0.5 |
| U2C A20G C22G C24A A69G | ≤ 0.5 |
| U2C A21C C62G | ≤ 0.5 |
| U2C A21G C33G C46G | ≤ 0.5 |
| U2C A21G C33G G50A | ≤ 0.5 |
| U2C A40C G52C | 0.528 |
| U2C A40G | 0.984 |
| U2C A42U | 0.937 |
| U2C A43C A57C | ≤ 0.5 |
| U2C C4A G18C G63A | 0.633 |
| U2C C4G A37G G44A | ≤ 0.5 |
| U2C C4U A40C A42U C46G | ≤ 0.5 |
| U2C C4U G10A A40U A42G A57U | ≤ 0.5 |
| U2C C4U G25C C29U G68A | ≤ 0.5 |
| U2C C5G G9A A15U A42C C46U | ≤ 0.5 |
| U2C C5U C11G | ≤ 0.5 |
| U2C C11A A36G A43C | ≤ 0.5 |
| U2C C11A C62G G68A | ≤ 0.5 |
| U2C C11U U32A A37C C55G | ≤ 0.5 |

| Variant | yeast fitness |
| --- | --- |
| U2C C24G A40C G56U | ≤ 0.5 |
| U2C C24G A42U G67A | ≤ 0.5 |
| U2C C24U A70C | 0.708 |
| U2C C24U G44C | ≤ 0.5 |
| U2C C27G A36C | ≤ 0.5 |
| U2C C27G C46U | 0.705 |
| U2C C27U C33U A40C C55A A65G | ≤ 0.5 |
| U2C C27U C46U G48A | 0.636 |
| U2C C29A G56C | ≤ 0.5 |
| U2C C29G A70C | ≤ 0.5 |
| U2C C29G C30G G48C | ≤ 0.5 |
| U2C C31U U35C A57U | ≤ 0.5 |
| U2C C60A C61G A65C | ≤ 0.5 |
| U2C C60G A65G | ≤ 0.5 |
| U2C G6A G23A C27U A45C C60A | 0.605 |
| U2C G12A A15G C66U G68A | ≤ 0.5 |
| U2C G12A A36U G67C | ≤ 0.5 |
| U2C G12A G18A U28C A42C G56C A65C C66A | ≤ 0.5 |
| U2C G12A G18C C33U | 0.561 |
| U2C G17A U19C G50C | ≤ 0.5 |
| U2C G18C G23A G25C A37G A43C C55G G68A | ≤ 0.5 |
| U2C G23C A57G | ≤ 0.5 |
| U2C G23C C24U A36G A57U G63A | ≤ 0.5 |
| U2C U3A A57U C62U | ≤ 0.5 |

| Variant | yeast fitness |
| --- | --- |
| U2C U3C G12A C34U | ≤ 0.5 |
| U2C U7A A65U | 0.725 |
| U2C U8G C31G A42C G56A | ≤ 0.5 |
| U2C U16A G38C G58C | ≤ 0.5 |
| U2C U19A U26C A45C G52C | ≤ 0.5 |
| U2C U19G A69C | 0.543 |
| U2C U28A A70C | ≤ 0.5 |
| U2C U28A G67A | ≤ 0.5 |
| U2C U28G A43U G56C A57U G67A | ≤ 0.5 |
| U2C U32G C60G G68A | ≤ 0.5 |
| U2G A14C A21G | ≤ 0.5 |
| U2G A14C A57U | ≤ 0.5 |
| U2G A14C C30U | ≤ 0.5 |
| U2G A15G G17A G52C | ≤ 0.5 |
| U2G A15U G68A | ≤ 0.5 |
| U2G A20C G38A | ≤ 0.5 |
| U2G A21G G39A A70G | ≤ 0.5 |
| U2G A45U G67C | ≤ 0.5 |
| U2G A65U C66G | ≤ 0.5 |
| U2G C4A A37U C62A | ≤ 0.5 |
| U2G C4A U16C C61G | 0.571 |
| U2G C4G A21C C22U | ≤ 0.5 |
| U2G C5A A43U C55U | ≤ 0.5 |
| U2G C5A U32C A36U G38A G50A | ≤ 0.5 |

| Variant | yeast fitness |
| --- | --- |
| U2G C5U A15U G17A | ≤ 0.5 |
| U2G C5U A21C C60G | ≤ 0.5 |
| U2G C11A C30A A57U | ≤ 0.5 |
| U2G C11G A20U C24G G51A C60G G68C | ≤ 0.5 |
| U2G C11G C24U | ≤ 0.5 |
| U2G C11G U54C | ≤ 0.5 |
| U2G C22G G63C G68U | ≤ 0.5 |
| U2G C24G C29G C31G A69U | ≤ 0.5 |
| U2G C27A C34G A65G | ≤ 0.5 |
| U2G C29U G44C | ≤ 0.5 |
| U2G C30G C49A G56A C60G G68C | ≤ 0.5 |
| U2G C30U U32C A40G A70G | ≤ 0.5 |
| U2G C33G G39C C55U C66U | ≤ 0.5 |
| U2G C49G G50C A70G | ≤ 0.5 |
| U2G C60A C66G | 0.989 |
| U2G C61A A65G C66U | ≤ 0.5 |
| U2G G6A C61U | ≤ 0.5 |
| U2G G6A G44C A65C | ≤ 0.5 |
| U2G G9A A14U A37C | ≤ 0.5 |
| U2G G9C C55A | ≤ 0.5 |
| U2G G9C G12A A42C C46A A65C | ≤ 0.5 |
| U2G G9C G12A C55U | ≤ 0.5 |
| U2G G12A U13A G25C U28A C33A G63C U64C C66U | ≤ 0.5 |
